## Primary screen of a compound library

The chains behind the UniProt entries cited, without tags or fusion partners.
UniProt E9BF75, entry or part of it: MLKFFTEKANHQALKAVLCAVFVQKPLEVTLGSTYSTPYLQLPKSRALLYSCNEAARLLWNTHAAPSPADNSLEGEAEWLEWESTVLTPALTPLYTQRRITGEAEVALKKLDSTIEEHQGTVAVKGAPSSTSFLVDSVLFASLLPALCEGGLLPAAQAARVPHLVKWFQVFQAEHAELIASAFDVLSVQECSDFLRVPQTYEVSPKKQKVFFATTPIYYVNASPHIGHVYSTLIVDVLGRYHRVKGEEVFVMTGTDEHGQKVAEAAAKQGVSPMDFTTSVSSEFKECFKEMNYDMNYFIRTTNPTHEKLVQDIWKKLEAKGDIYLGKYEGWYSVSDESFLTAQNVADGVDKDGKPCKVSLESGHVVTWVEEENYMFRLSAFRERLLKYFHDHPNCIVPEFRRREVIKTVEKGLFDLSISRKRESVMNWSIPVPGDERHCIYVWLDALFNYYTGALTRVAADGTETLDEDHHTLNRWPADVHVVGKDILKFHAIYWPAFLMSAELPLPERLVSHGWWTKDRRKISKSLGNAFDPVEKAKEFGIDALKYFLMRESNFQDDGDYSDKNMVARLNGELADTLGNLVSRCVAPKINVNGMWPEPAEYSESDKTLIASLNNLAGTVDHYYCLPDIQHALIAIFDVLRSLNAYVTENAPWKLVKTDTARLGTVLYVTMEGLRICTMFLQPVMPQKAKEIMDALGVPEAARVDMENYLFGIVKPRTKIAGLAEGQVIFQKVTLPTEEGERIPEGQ

Source: ChEMBL document CHEMBL3988442, “University of Dundee, Small-Polar-MMV Screening Library” (2021).

LdMetRS: 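Methionyl-tRNA synthetase (putative), Leishmania donovani (UniProt E9BF75). Primary screen of methionyl-tRNA synthetase; the read-out is not stated. The test concentration is not given. Values are per cent inhibition. Size under these conditions: about 68,000 compounds, about 24 of them at 50% or above in at least one test.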
Mtb heat-shock: 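Assay on Mycobacterium tuberculosis, filed only as a heat shock assay from Cornell; the read-out is not stated. The concentration is filed as 10 mM, unlikely as a test dose, so the dose is not known. Higher reads as stronger inhibition (inferred: compounds with an IC50 in retests scored well above the rest). About 69,000 compounds were tested under these conditions; 1.4% (about 930) showed 50% or more at least once.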

Results are percentages, as filed.
The record does not define 0% and 100%; most values in the screen are far below 50% and negative numbers occur (in some assays of this library far below -100).
This is an unselected part of the compounds tested.
A dash means the value is not listed here; it may have been measured.

* O=C(CC1=CCCCC1)Nc1ccc(CN2C(=O)CCC2=O)cc1 : LdMetRS: 13.59%; Mtb heat-shock: -24.22%
* COC(=O)c1ccc(N(C(=O)c2cscn2)C(C)C)c(C)c1 : LdMetRS: 10.34%; Mtb heat-shock: -47.64%
* O=C1CC2(CCN(Cc3ccc(-c4ccn[nH]4)s3)CC2)CN1 : LdMetRS: 12.33%; Mtb heat-shock: 3.953%
* Nc1nccnc1C1CN(C(=O)COc2cccnc2)CCO1 (stereo not given) : LdMetRS: 18.1%; Mtb heat-shock: -1.181%
* Cc1cccc(C(C(=O)NC(C)(C)CN2CCCC2)N(C)C)c1 (stereo not given) : LdMetRS: 14.86%; Mtb heat-shock: -0.4077%
* CN(Cc1cnc(N)nc1)CC1CCCN(CCc2ccc(Cl)cc2)C1 (stereo not given) : LdMetRS: 10.63%; Mtb heat-shock: -10.27%
* CC(C)OCc1ncn2c1CN(Cc1nccs1)CCC2.O=C(O)C(F)(F)F : Mtb heat-shock: -6.348%
* Cc1cc(C(=O)N2CCC3(C2)CN(c2ccsc2)C(=O)CN3C)[nH]n1.O=C(O)C(F)(F)F (stereo not given) : Mtb heat-shock: -12.94%
* O=C1OCCN1Cc1nc(C2(c3ccc(F)cc3)CCOC2)no1 (stereo not given) : LdMetRS: 14.29%; Mtb heat-shock: 4.424%
* O=C(O)C(F)(F)F.O=C(O)C(F)(F)F.O=C(O)C(F)(F)F.[H][C@]12CCN(Cc3ccoc3)C[C@@]1([H])OCCN(Cc1cccnc1)C2 : Mtb heat-shock: 3.286%
* CCC(=O)c1ccc(OCC(=O)NCC2CC(CC)=NO2)cc1 (stereo not given) : LdMetRS: 7.125%; Mtb heat-shock: -9.525%
* [H][C@@]12CN(Cc3ccoc3)C[C@]1([H])OCCN2CC1CCCO1 (stereo not given in full) : Mtb heat-shock: 12.88%
* Cc1cccc(C2CCCCCN2Cc2cn(C)nc2C)c1 (stereo not given) : LdMetRS: 11.27%; Mtb heat-shock: 5.626%
* CN(C)CCO[C@H]1CN(C(=O)c2ccc(C#N)cc2)[C@@H]2COC[C@H]12 : LdMetRS: 7.19%
* Cc1nc(CN(C)C2CCN(Cc3cccc(F)c3)C2)no1 (stereo not given) : LdMetRS: 11.6%; Mtb heat-shock: -6.449%
* [H][C@]12CC[C@]([H])(CN(Cc3c(C)noc3C)C1)N(Cc1cc(F)cc(F)c1)C2 : Mtb heat-shock: 6.493%
* CC(CNC(=O)c1c[nH]nn1)Oc1cccc(Br)c1 (stereo not given) : LdMetRS: 9.03%; Mtb heat-shock: 19.88%
* C[C@@H]1CN(C2CCOCC2)C[C@]12CCN(c1cccnc1)C2=O : LdMetRS: -6.767%
* Cn1cc(-c2nnc3sc(C4CC4)nn23)cn1 : LdMetRS: 11.78%; Mtb heat-shock: 0.302%
* O=C1C[C@H]2CC[C@@H](CN1)N2C(=O)CCCc1ccc(Cl)cc1 : LdMetRS: 20.1%
* CS(=O)(=O)N1CCO[C@@H]2CN(C(=O)Cc3cccs3)CC[C@@H]2C1 : LdMetRS: 16.02%
* [H][C@@]12CCCC[C@]1(O)CCN(Cc1cc(=O)n3c4c(cccc14)CCC3)C2 : Mtb heat-shock: 14.94%
* CCc1cc(C(=O)N[C@H]2CN(CCS(C)(=O)=O)C[C@@H]2C2CC2)[nH]n1 : LdMetRS: 8.075%; Mtb heat-shock: 0.08488%
* CS(=O)(=O)NC1CCCN(C(=O)NCc2ccccc2Cl)C1 (stereo not given) : LdMetRS: 25.97%; Mtb heat-shock: -13.83%
* CCCc1noc(CS(=O)(=O)CC(=O)NC(C)CCC)n1 (stereo not given) : LdMetRS: 7.986%; Mtb heat-shock: 60.91%

For reference, 2 entries once more:

| structure | LdMetRS | Mtb heat-shock |
|---|---|---|
| `CS(=O)(=O)N1CCO[C@@H]2CN(C(=O)Cc3cccs3)CC[C@@H]2C1` | 16.02 | - |
| `[H][C@@]12CN(Cc3ccoc3)C[C@]1([H])OCCN2CC1CCCO1` (stereo not given in full) | - | 12.88 |